# Assay results published in the supplement of paper PMC10338343.
# ± gives the standard deviation. The list shows a part of the results. Many entries were measured with a wide error.
# Test system: EfPiwi piRISC loaded with L1MC piRNA (26 nt)
# Assay: pre-steady-state target cleavage rate (min^-1); guide: L1MC piRNA 5'p-UAACUAAAUACUAUGCAAGCUGUAGG; MIWI and MILI are mouse PIWI proteins and EfPiwi is from a freshwater sponge; tags in brackets are library labels; higher = faster piRNA-guided slicing of the target
# Procedure, shortened: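 In Cleave-'n-Seq, a transcribed, DNA-blocked target RNA library (0.1 nM) was combined with 1 nM active affinity-purified piRISC bearing one synthetic guide, with or without 500 nM GTSF1 partner protein. Reactions ran in HEPES–potassium acetate buffer at 33 °C for 0–8 or 0–960 min. Uncleaved targets were sequenced and normalised to depth and to weakly complementary targets, three trials were pooled, and k3 was capped at 0.0001 min^-1. The pre-steady-state cleavage rate was obtained by fitting a burst-and-steady-state model.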
# [1] = auxiliary factor: 500 nM Ephydatia muelleri Gtsf1
# [2] = auxiliary factor: none (no Gtsf1)
Sequence,pre-steady-state target cleavage rate [1],pre-steady-state target cleavage rate [2]
UCCUGGUACAGCAUGCAUUGUAUUUAGUUA,0.00628 ± 0.0022,0.00113 ± 0.0087
UCCUGGAUCAGCUAGCAUACUAUUUAGUUA,0.00342 ± 0.0018,0.000499 ± 0.015
UCCUCCAACAGCUUGCAUAGUAUUAAGUUA,0.00502 ± 0.002,0.000605 ± 0.0088
UCCUGGAUGUGCUUGCAUUGUAUUUAGAUA,0.00278 ± 0.0033,0.000129 ± 0.088
UCCUGCUACAGGCUUGCAUAGUAUUUAGUUA,0.00977 ± 0.0027,0.00113 ± 0.0074
UCCUGGAUGUGCUUGCAAAGUAUUAAGUUA,0.0026 ± 0.005,0.000595 ± 0.017
UCCUGGAUGUGCAUGCAUAGUAUUUUGUUA,0.000688 ± 0.0088,0.000756 ± 0.011
UCCUGGUACAGCUUGCAUAGUAAAAAGUUA,0.00114 ± 0.0037,0.000801 ± 0.0079
UCCUGGUACAGCUUCGAUAGUAUUUAGUUA,0.00411 ± 0.0026,0.000413 ± 0.022
UCCUGGAUGUGCUUGCAUAGUAUUAAGUUA,0.00372 ± 0.0032,0.00115 ± 0.0088
UCCUGGAUCAGCUUGUCAUAGUAUUUAGUUA,0.0196 ± 0.0046,0.000833 ± 0.013
UCCUGCUACAGCUUGCAUAGUACUUUAGUUA,0.00465 ± 0.0015,0.000377 ± 0.015
UCCUGGUACAGCUAGCUUAGUAUUUAGUUA,0.00544 ± 0.0027,0.00112 ± 0.0078
UCCUGCUACAGCUUGGAUAGUUUUUAGUUA,0.0172 ± 0.0039,0.00264 ± 0.005
UCCUGGAUGUCGAUGCAUAGUAUCUUAGUUA,0.00105 ± 0.0061,0.000679 ± 0.012
UCCUGCUACAGCUUGCAUUGUAUAUAGUUA,0.00254 ± 0.0032,0.000414 ± 0.014
UCCUGGUACAGCUUGCAUAGUAUUUUGAUA,0.00381 ± 0.0026,0.00147 ± 0.0079
UCCUGGAUGUCGAACGUUAGUAUUUAGAUA,< 0.0001,< 0.0001
UCCUGGAUGAGCUUGCAUAGAUUUUAGUUA,0.00056 ± 0.0082,0.000624 ± 0.0099
UCCUGGUACAGCUUGCAAAGUUUUUAGUUA,0.00245 ± 0.0024,0.000684 ± 0.0097

Sequence,pre-steady-state target cleavage rate [1],pre-steady-state target cleavage rate [2]
UCCUGCUACAGCUUGCAUAGUAUUUAGGUUA,0.00526 ± 0.0014,0.000319 ± 0.019
UCCUCCUACAGCUUGCAUAGUAUUUACUUA,0.0042 ± 0.0034,0.000575 ± 0.0089
UCCUCGUACAGCUUGCAUACUAUUUAGUUA,0.0224 ± 0.0069,0.00118 ± 0.0074
UCCUGGAUCAGGUUGCAUACUAUUUAGUUA,0.00262 ± 0.0019,0.000601 ± 0.017
UCCUGGAACAGCUAGGAUAGUAUUUAGUUA,0.000949 ± 0.0072,0.00069 ± 0.0095
UCCUGGAACAGCUAGCAUUGUAUUUAGUUA,0.0018 ± 0.0038,0.00035 ± 0.016
UCCUGGAACACCUUGCAUAGUAUUUAGUUA,0.0061 ± 0.0032,0.00104 ± 0.0086
UCCUGGAUGUGCUUAGCAUAGUAUUUAGUUA,0.00497 ± 0.0028,0.00103 ± 0.0087
UCCUGGAACAGCUUGCAUAGUAUUUUAGUUA,0.0192 ± 0.0054,0.000493 ± 0.033
UCCUGGUACAGCUUGCAUAGUAUUUAGUAUA,0.00633 ± 0.0024,0.000755 ± 0.02
UCCUGGAACAGCUUGCAUAGUAAAUAGUUA,0.00589 ± 0.0023,0.00084 ± 0.011
UCCUGGAUGUGGUUGCAUAGUAUUUUGUUA,0.00236 ± 0.0032,0.000991 ± 0.013
UCCUCCUACAGCUUGCAUAGAAUUUUGUUA,0.00325 ± 0.0016,0.000318 ± 0.014
UCCUGGUUCAGGUUGCAUAGUAUUUAGUUA,0.0166 ± 0.0047,0.00417 ± 0.0055
UCCUGGAUCACCUUGCAUACUAUUUAGUUA,0.00341 ± 0.0028,0.000475 ± 0.013
UCCUGGUACAGCUUGCUAUGUAUUUAGUUA,0.0029 ± 0.0044,0.00143 ± 0.0065
UCCUGGAUCAGCAUGCAUUGUAUUUAGUUA,0.00421 ± 0.0021,0.00039 ± 0.018
UCCUGGUACAGCUUGCAUAGUAUUUAGUCA,0.00545 ± 0.0021,0.000355 ± 0.037
UCCUGGAACAGCUUGCAUACUAUUUAGAAA,0.00184 ± 0.0028,0.000211 ± 0.03
UCCUGGAUGUCGAACGUUAGUAUUAAGUAA,< 0.0001,0.000105 ± 0.056

# A different layout for some results above:
Sequence | pre-steady-state target cleavage rate [1] | pre-steady-state target cleavage rate [2]
UCCUGGUUCAGGUUGCAUAGUAUUUAGUUA | 0.0166 ± 0.0047 | 0.00417 ± 0.0055
UCCUGGAUCACCUUGCAUACUAUUUAGUUA | 0.00341 ± 0.0028 | 0.000475 ± 0.013

# Next part

Sequence,pre-steady-state target cleavage rate [1],pre-steady-state target cleavage rate [2]
UCCUGCUACAGCUAGCUUAGUAUUUAGUUA,0.00973 ± 0.0029,0.000915 ± 0.0074
UCCUCCUACAGCUUGCAUUGUAUUUUGUUA,0.00442 ± 0.0027,0.000538 ± 0.013
UCCUGGAUGUCGAACGUUAGUAUUUGAGUUA,0.000257 ± 0.031,0.000207 ± 0.029
UCCUGGAACAGCAUGCAUUGUAUUUAGUUA,0.00504 ± 0.002,0.0006 ± 0.014
UCCUGGUACAGCUAGCAUAGUAUUUUGUUA,0.00396 ± 0.0023,0.000565 ± 0.018
UCCUGGAUGUGCAUGCAUAGUAUUAAGUUA,0.00157 ± 0.0042,0.000579 ± 0.017
UCCUGGAACAGCUUGCAUAGUUAUUUAGUUA,0.00185 ± 0.0026,0.00148 ± 0.0076
UCCUGGAUCAGCUUGCAAAGUAUUAAGUUA,0.00373 ± 0.0026,0.000978 ± 0.011
UCCUGGUUCAGCUUGCAUAGAAUUUAGUUA,0.00201 ± 0.0026,0.00126 ± 0.0071
UCCUGGAACACGUUGCAUAGUAUUUAGUUA,0.0172 ± 0.0053,0.000591 ± 0.021
UCCUGGUACAGCUUGCAAUGUAUUUAGUUA,0.000641 ± 0.0075,0.000683 ± 0.015
UCCUGCUACAGCUUGCAUACUAUUUAGUUA,0.00755 ± 0.0026,0.000774 ± 0.0072
UCCUCCAACACCUUGCAUAGUAUUUAGUUA,0.00954 ± 0.0038,0.000647 ± 0.0097
UCCUGGUACUGCUUGCUUAGUAUUUAGUUA,0.00909 ± 0.0033,0.000482 ± 0.025
UCCUGGAUCAGCUUGCAAAGUAUUUAGAUA,0.00558 ± 0.0029,0.000262 ± 0.028
UCCUGCUACACGCUUGCAUAGUAUUUAGUUA,0.00609 ± 0.0019,0.000517 ± 0.012
UCCUGCUACAGCUUGCAUAGAUAAAUCAAA [g11:g25:cont:t1A],0.000899 ± 0.0062,0.000316 ± 0.02
UCCUGGAUCAGCUUGCAUAGUAUAUAGUUA,0.0716 ± 0.02,0.0117 ± 0.0058
UCCUGGAUGACUUGCAUAGUAUUUAGUUA,0.0058 ± 0.0023,0.00112 ± 0.0091
UCCUGGAUCAGCUUGCAUAGAAUUUUGUUA,0.00126 ± 0.0023,0.000173 ± 0.045
